No constants are given. Whether binding was seen depends on the method and setting. In cells and extracts the contact can be indirect. These calls come from enrichment with a bait or labelling near it, and not all partners need be listed.

By UniProt entry, the sequences of proteins in these tests, tags left out.
UniProt P27144: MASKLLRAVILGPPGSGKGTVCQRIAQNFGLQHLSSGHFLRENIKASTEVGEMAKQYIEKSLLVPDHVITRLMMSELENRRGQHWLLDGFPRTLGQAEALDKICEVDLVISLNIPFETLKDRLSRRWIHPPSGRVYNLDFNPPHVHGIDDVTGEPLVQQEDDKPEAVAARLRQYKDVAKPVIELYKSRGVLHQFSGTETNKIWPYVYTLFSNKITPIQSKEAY

Among the data in publication PMC12217281 are binding values, retold here.

The assay addresses adenylate kinase 4 (AK4) (human (endogenous in 6-10B)) (UniProt P27144). As to the kind of experiment: affinity purification with mass spectrometry; 6-10B lysate in IP lysis buffer, anti-AK4 antibody (anti-IgG as negative control) at 4 °C overnight, Protein A/G Sepharose beads, mass spectrometry of the immune complexes.

B1: nicotinamide nucleotide transhydrogenase (NNT) (protein, UniProt Q13423 44-1086)
chain: CKAPVKPGIPYKQLTVGVPKEIFQNEKRVALSPAGVQNLVKQGFNVVVESGAGEASKFSDDHYRVAGAQIQGAKEVLASDLVVKVRAPMVNPTLGVHEADLLKTSGTLISFIYPAQNPELLNKLSQRKTTVLAMDQVPRVTIAQGYDALSSMANIAGYKAVVLAANHFGRFFTGQITAAGKVPPAKILIVGGGVAGLASAGAAKSMGAIVRGFDTRAAALEQFKSLGAEPLEVDLKESGEGQGGYAKEMSKEFIEAEMKLFAQQCKEVDILISTALIPGKKAPVLFNKEMIESMKEGSVVVDLAAEAGGNFETTKPGELYIHKGITHIGYTDLPSRMATQASTLYSNNITKLLKAISPDKDNFYFDVKDDFDFGTMGHVIRGTVVMKDGKVIFPAPTPKNIPQGAPVKQKTVAELEAEKAATITPFRKTMSTASAYTAGLTGILGLGIAAPNLAFSQMVTTFGLAGIVGYHTVWGVTPALHSPLMSVTNAISGLTAVGGLALMGGHLYPSTTSQGLAALAAFISSVNIAGGFLVTQRMLDMFKRPTDPPEYNYLYLLPAGTFVGGYLAALYSGYNIEQIMYLGSGLCCVGALAGLSTQGTARLGNALGMIGVAGGLAATLGVLKPGPELLAQMSGAMALGGTIGLTIAKRIQISDLPQLVAAFHSLVGLAAVLTCIAEYIIEYPHFATDAAANLTKIVAYLGTYIGGVTFSGSLIAYGKLQGLLKSAPLLLPGRHLLNAGLLAASVGGIIPFMVDPSFTTGITCLGSVSALSAVMGVTLTAAIGGADMPVVITVLNSYSGWALCAEGFLLNNNLLTIVGALIGSSGAILSYIMCVAMNRSLANVILGGYGTTSTAGGKPMEISGTHTEINLDNAIDMIREANSIIITPGYGLCAAKAQYPIADLVKMLTEQGKKVRFGIHPVAGRMPGQLNVLLAEAGVPYDIVLEMDEINHDFPDTDLVLVIGANDTVNSAAQEDPNSIIAGMPVLEVWKSKQVIVMKRSLGVGYAAVDNPIFYKPNTAMLLGDAKKTCDALQAKVRESYQK
As for B1, the binding result was “binds”.
